Experimental data reported in PubChem BioAssay AID602313 (National Center for Advancing Translational Sciences (NCATS), 2012).
About 760 (0.19%) of roughly 390,000 compounds were called active. The shares of active, inactive and inconclusive entries below differ from those in the screen. Calls come from the whole dose curve; as a rule, active = well fitted inhibition curve with a large enough effect; inconclusive = small, poorly fitted or top-dose-only effect; inactive = flat fitted curve, though single readings scatter. Potencies of inconclusive entries are doubtful fits and often do not repeat.

Assay: qHTS for Inhibitors of Vif-A3F Interactions: qHTS; note: nearly all actives have a fitted effect of over 65% in size; for activity, negative = active: % of control where 0% means no effect
Conditions: HeLa A3F-eYFP + Vif (tagged APOBEC3F with the HIV-1 protein that degrades it), YFP fluorescence increase; series mostly up to 46.1 µM; activity, negative = active: at the top concentration
Outline: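 HeLa cells stably expressing Vif plus C-terminally eYFP-tagged A3F were seeded, incubated overnight at 37 deg C, dosed with compound, incubated overnight again at 37 deg C. Yellow fluorescence (Ex 488/Em 500-530) reported blocked Vif-mediated A3F-eYFP degradation.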
Potency is the fitted concentration of half-maximal effect.

SMILES	Potency	activity, negative = active
CCOCCCN(C(=O)c1snc(C(N)=O)c1N)C(C(=O)NC1CCCC1)c1ccc(O)c(OC)c1 (stereo not drawn)	inconclusive: 5.62 µM [inhibitor, single point]	
O=C(CSc1nc2cc([N+](=O)[O-])ccc2n1-c1ccccc1)NCc1ccc2c(c1)OCO2	inconclusive: 35.5 µM [inhibitor, partial curve, poor fit]	
C/C(=N\NC(=S)NC1CCCCC1)c1ccc(OC(F)F)cc1OC(F)F	inconclusive: 31.6 µM [inhibitor, single point]	
COC(=O)C1=CN(Cc2ccc(F)cc2)C=C(C(=O)OC)C1c1cc(OC)c(OC)c(OC)c1		inactive: 1.64%
COc1cccc(-c2ccc3ncnc(NCc4ccc5c(c4)OCO5)c3c2)c1		inactive: -1.16%
Cc1cccc(N(CC(=O)NCc2ccc(F)cc2)C(=O)c2ccco2)c1	inconclusive: 6.31 µM [inhibitor, single point]	
C=CCn1c(SCC(=O)c2c(C)[nH]c3ccccc23)nnc1-c1ccncc1	inconclusive: 1.78 µM [inhibitor, partial curve, poor fit]	
O=C(Cc1ccc(-c2ccccc2)cc1)Nc1ccccn1	inconclusive: 35.5 µM [inhibitor, single point]	
Cc1nc2ccc(NC(=O)CSc3nnc(C)s3)cc2[nH]1	inconclusive: 6.31 µM [inhibitor, single point]	
CCc1ccc2c(c1)C1(C(=O)N2)N2CCCC2C(C(=O)c2ccc3ccccc3c2)C12C(=O)Nc1ccccc12 (stereo not drawn)		inactive: -9.79%
Cn1c(=O)oc2cc(S(=O)(=O)NC3CCCCC3)ccc21	inconclusive: 6.31 µM [inhibitor, single point]	
Cc1cc(C)c(NC(=O)CSCc2nc3sc(C)c(C)c3c(=O)[nH]2)c(Cl)c1	inconclusive: 28.2 µM [inhibitor, single point]	
CCCn1c(C(C)Nc2nc(-c3ccc(C)cc3)cs2)nc2ccccc21 (stereo not drawn)	inconclusive: 17.8 µM [inhibitor, single point]	
O=C(Nc1ccccc1)Nc1nnc(CSCc2ccccc2Cl)s1		inactive: -15.1%
O=C(CSc1nc2c(cnn2-c2ccccc2)c(=O)[nH]1)N1CCCCC1	inconclusive: 10 µM [inhibitor, partial curve, poor fit]	
CC(=O)N/N=C/c1cc(C(C)C)cc(/C=N/NC(C)=O)c1O	active: 31.6 µM	
CCC(=O)NC(=S)Nc1cccc(Cl)c1N1CCCC1	active: 10 µM	
COc1ccc(OC)c(/C=C2\SC(=S)N(NS(=O)(=O)c3ccc(C)cc3)C2=O)c1		inactive: 7.19%
CC(C)N1CCc2c(sc(NC(=S)NC(=O)c3ccccc3)c2C#N)C1	inconclusive: 12.6 µM [inhibitor, partial curve, poor fit]	
COc1ccc(NC(=O)CSc2nc3ccccc3n2CC(=O)Nc2cccc(C)c2C)cc1	inconclusive: 20 µM [inhibitor, partial curve, poor fit]	
Cc1ccc(CCNC(=O)c2ccc(Cn3c(=O)c4cccn4c4cccnc43)cc2)cc1	inconclusive: 35.5 µM [inhibitor, single point]	
O=C(c1ccc(Cl)cc1Cl)N1CCC(c2nc3c(nnn3Cc3ccco3)c(=O)[nH]2)CC1	inconclusive: 5.62 µM [inhibitor, single point]	
CN(/N=C/c1ccccc1O)C(=S)c1ccccc1	inconclusive: 35.5 µM [inhibitor, single point]	

SMILES	Potency	activity, negative = active
Cc1ccc2nc(N3CC(=O)Nc4ccccc43)nc(-c3ccccc3)c2c1	inconclusive: 8.91 µM [inhibitor, partial curve, poor fit]	
COCCn1c(-c2ccc(-c3ccccc3Cl)o2)nc2c1c(=O)[nH]c(=O)n2CC(C)C	inconclusive: 25.1 µM [inhibitor, single point]	
Cn1c(SCc2ccccc2)nccc1=O		inactive: 11%
Cc1cc(C)cc(C(=O)NC(=S)Nc2ccc3c(c2)OCCO3)c1	inconclusive: 35.5 µM [inhibitor, single point]	
CC(C)OCCCn1c(=O)c2ccccc2n2c(-c3ccc(F)c(F)c3)nnc12		inactive: -7.2%
COc1cc(C(=O)NC(=S)N(C)Cc2ccccc2)cc(OC)c1OC	inconclusive: 12.6 µM [inhibitor, partial curve, poor fit]	
CCCc1nc(SCC(=O)Nc2nccs2)c2ccccc2n1	inconclusive: 35.5 µM [inhibitor, partial curve, poor fit]	
Cc1cc(C)n(CCN(C)C(=O)CCc2nnc(-c3ccc4c(c3)OCO4)o2)n1	inconclusive: 3.16 µM [inhibitor, single point]	
CCN1CCN(C(=O)c2ccc(CSc3ccc(C)cc3)cc2)CC1		inactive: -6.95%
COc1ccc(C(=O)OCC[N+]2(C)CCOCC2)cc1		inactive: 3.79%
Nc1cccc2c1C(=O)N(C(=O)/C=C/c1ccc(F)cc1)C2=O	inconclusive: 3.16 µM [inhibitor, single point]	
CN1/C(=C\C(=S)Nc2ccccc2)C(C)(C)c2ccccc21	inconclusive: 35.5 µM [inhibitor, single point]	
Cc1cccc(S(=O)(=O)c2c(N)n(/N=C/c3ccco3)c3nc4ccccc4nc23)c1		inactive: -20.8%
O=C1CN(C(=O)c2ccc(S(=O)(=O)N3CCCCC3)cc2)C(c2ccc(F)cc2)c2cc(Br)ccc2N1 (stereo not drawn)		inactive: -3.3%
C=CCSC(=C(C#N)C#N)c1cc2c([nH]1)CCCC2	inconclusive: 31.6 µM [inhibitor, single point]	
O=C(CSc1nc(-c2ccccc2)nc2c1Cc1ccccc1O2)Nc1ccc(C(=O)O)cc1		inactive: -1.57%
Cc1ccc(CNC(=S)Nc2cc(C)ccc2OC(F)F)cc1	inconclusive: 20 µM [inhibitor, single point]	
O=C(c1ccc2c3c(cccc13)CC2)C1CCCN(Cc2ccccn2)C1 (stereo not drawn)	inconclusive: 22.4 µM [inhibitor, partial curve, poor fit]	
O=c1[nH]c(CSc2cccc[n+]2[O-])nc2ccccc12	inconclusive: 3.16 µM [inhibitor, partial curve, poor fit]	
Fc1ccc(-c2cc(C(F)(F)F)nc(NCc3ccccc3)n2)cc1		inactive: -6.51%
Cc1c(O)ccc(/C=N/Nc2nc(-c3cccnc3)nc3ccccc23)c1O	inconclusive: 35.5 µM [inhibitor, single point]	
O=C(Nc1cc(Cl)ccc1-n1cncn1)c1ccc([N+](=O)[O-])o1	inconclusive: 25.1 µM [inhibitor, single point]	
O=c1cc(-c2ccccc2)[nH]n1-c1ccc([N+](=O)[O-])cc1	inconclusive: 35.5 µM [inhibitor, single point]	

SMILES	Potency	activity, negative = active
O=C1OC(Nc2ccc(F)cc2F)c2ccccc21 (stereo not drawn)		inactive: 8.86%
CCn1c(O)c(N=Nc2ccc3ccccc3n2)c2ccccc21	inconclusive: 35.5 µM [inhibitor, single point]	
Cc1ccc2oc(=O)n(Cc3ccc(F)cc3)c2c1	inconclusive: 2 µM [inhibitor, partial curve, poor fit]	
Cc1cc(/C=C(\C#N)C(=O)OCC#N)c(C)n1CC(C)C	inconclusive: 10 µM [inhibitor, partial curve, poor fit]	
CC(NC(=O)c1ccco1)c1ccc(-n2ccnc2)cc1 (stereo not drawn)	inconclusive: 35.5 µM [inhibitor, single point]	
C=CCOn1c(=O)c(-c2ccccc2)[n+]([O-])c2ccccc21		inactive: -2.05%
CCOC(=O)c1ccc(N/C=C\C(=O)c2cccc(OC)c2)cc1	inconclusive: 25.1 µM [inhibitor, partial curve, poor fit]	
Cc1ccc(C(=O)Nc2ccc(Br)cc2)cc1S(=O)(=O)NCc1ccccc1		inactive: -16.1%
Cc1cc(C)n(-c2cc(C(=O)O)cc(C(=O)O)c2)n1		inactive: 3.03%
C#CCOCCOCCOCCNc1nc(N2CCN(C(=O)[C@H](CCCN=C(N)N)n3cc(C(N)[C@@H](C)CC)nn3)CC2)nc(N2CCN(C(=O)[C@H](CCC(=O)O)n3cc([C@@H](N)CCCCN)nn3)CC2)n1 (stereo partly drawn)		inactive: 2.87%
Cc1ccc(C)c2[nH]c(=O)c(CN(Cc3ccc4c(c3)OCO4)Cc3nnnn3Cc3ccco3)cc12		inactive: 0.725%
CCS(=O)(=O)N1Cc2ccccc2CC1C(=O)Nc1nc2ccccc2s1 (stereo not drawn)	inconclusive: 22.4 µM [inhibitor, single point]	
Cn1cccc1/C=N/N1CCN(Cc2ccccc2Cl)CC1	inconclusive: 3.55 µM [inhibitor, single point]	
CCOC(=O)c1sc(NC(=O)CSc2nccc(C)n2)c(C#N)c1C		inactive: 5.25%
O=C(Oc1cccc(C(=S)N2CCOCC2)c1)c1ccc([N+](=O)[O-])cc1	inconclusive: 35.5 µM [inhibitor, single point]	
CCN(CC)CCn1c(-c2ccccc2)csc1=Nc1ccccc1		inactive: 2.82%
CN(C)CCOc1ccc2c(c1)C(=O)C(=Cc1ncc([N+](=O)[O-])n1C)C2	inconclusive: 22.4 µM [inhibitor, partial curve, poor fit]	
O=C1/C(=C/c2ccc([N+](=O)[O-])cc2)Oc2cc(O)ccc21	active: 22.4 µM	
COc1ccc(NC(=O)Cn2c(=O)n(Cc3ccccc3Cl)c(=O)c3cc(OC)c(OC)cc32)cc1OC		inactive: -6.18%
O=C(NC(=S)NCc1ccccc1)c1ccccc1F		inactive: -5.69%
c1ccc(Cc2nc3ccccc3s2)cc1	inconclusive: 22.4 µM [inhibitor, single point]	
COc1cc(/C=N/NC(=S)NCCc2ccccc2)cc(OC)c1OC	inconclusive: 14.1 µM [inhibitor, single point]	

Structural class, those above with a thiophene ring, fused or not.
SMILES	Potency	activity, negative = active
Cc1cc(C)c(NC(=O)CSCc2nc3sc(C)c(C)c3c(=O)[nH]2)c(Cl)c1	inconclusive: 28.2 µM [inhibitor, single point]	
CC(C)N1CCc2c(sc(NC(=S)NC(=O)c3ccccc3)c2C#N)C1	inconclusive: 12.6 µM [inhibitor, partial curve, poor fit]	
CCOC(=O)c1sc(NC(=O)CSc2nccc(C)n2)c(C#N)c1C		inactive: 5.25%
